{
  "sequences": {"note": "Chains of the proteins cited; added tags and fusions are not shown. Residues count along the entry.", "UniProt Q68FX9, residues 37-310": "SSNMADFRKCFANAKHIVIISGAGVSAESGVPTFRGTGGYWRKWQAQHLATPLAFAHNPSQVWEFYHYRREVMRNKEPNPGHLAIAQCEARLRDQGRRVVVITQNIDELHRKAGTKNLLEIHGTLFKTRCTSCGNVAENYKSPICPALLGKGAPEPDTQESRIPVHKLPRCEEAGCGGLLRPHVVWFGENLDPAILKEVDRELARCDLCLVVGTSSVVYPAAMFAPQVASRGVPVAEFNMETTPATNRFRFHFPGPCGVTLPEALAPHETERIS", "UniProt O35547": "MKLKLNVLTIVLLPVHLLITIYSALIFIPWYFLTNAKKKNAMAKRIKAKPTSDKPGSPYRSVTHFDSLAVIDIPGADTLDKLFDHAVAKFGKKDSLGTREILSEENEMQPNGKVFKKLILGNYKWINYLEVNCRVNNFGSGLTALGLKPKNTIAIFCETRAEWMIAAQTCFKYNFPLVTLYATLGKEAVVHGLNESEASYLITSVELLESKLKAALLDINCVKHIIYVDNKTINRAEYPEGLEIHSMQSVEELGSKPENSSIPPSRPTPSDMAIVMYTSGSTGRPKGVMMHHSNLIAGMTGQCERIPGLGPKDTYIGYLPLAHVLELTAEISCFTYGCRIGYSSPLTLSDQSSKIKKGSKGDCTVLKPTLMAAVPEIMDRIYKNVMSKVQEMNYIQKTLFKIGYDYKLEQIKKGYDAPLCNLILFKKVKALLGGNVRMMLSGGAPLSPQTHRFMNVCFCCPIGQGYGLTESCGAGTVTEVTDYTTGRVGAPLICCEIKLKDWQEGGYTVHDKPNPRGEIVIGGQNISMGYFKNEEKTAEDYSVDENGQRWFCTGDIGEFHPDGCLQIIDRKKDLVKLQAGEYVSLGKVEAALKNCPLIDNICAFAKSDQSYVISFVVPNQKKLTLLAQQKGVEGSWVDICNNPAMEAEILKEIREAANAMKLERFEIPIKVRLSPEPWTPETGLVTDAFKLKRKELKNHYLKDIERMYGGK"},
  "source": "paper PMC12360603",
  "target": "SIRT5 (rat (endogenous in rat chondrocytes)) (UniProt Q68FX9)",
  "experiment": "co-IP; endogenous; cell lysates incubated with SIRT5-specific antibodies and protein A/G agarose beads; immunoprecipitated proteins analysed by Western blot with ACSL4-specific antibodies",
  "note": "No constants are given. Whether binding was seen depends on the method and setting. In cells and extracts the contact can be indirect. Some results given as binding are weak or reduced against the parent protein; the word gives no strength.",
  "data": [
    {"substance": "ACSL4 (from UniProt O35547 1-711) (enzyme)", "values": [
      {"measurement": "binding", "result": "binds"}
    ]}
  ]
}
